Reference: patent US12691112B2, “FGFR tyrosine kinase inhibitors for the treatment of urothelial carcinoma” (Janssen Pharmaceutica NV, priority 2019, dated 2026)
Read-outs that look alike come from different tables or passages of the source.

Protein sequences, listed by entry. Tags and fused reporters are not part of them.
UniProt P11712, whole entry: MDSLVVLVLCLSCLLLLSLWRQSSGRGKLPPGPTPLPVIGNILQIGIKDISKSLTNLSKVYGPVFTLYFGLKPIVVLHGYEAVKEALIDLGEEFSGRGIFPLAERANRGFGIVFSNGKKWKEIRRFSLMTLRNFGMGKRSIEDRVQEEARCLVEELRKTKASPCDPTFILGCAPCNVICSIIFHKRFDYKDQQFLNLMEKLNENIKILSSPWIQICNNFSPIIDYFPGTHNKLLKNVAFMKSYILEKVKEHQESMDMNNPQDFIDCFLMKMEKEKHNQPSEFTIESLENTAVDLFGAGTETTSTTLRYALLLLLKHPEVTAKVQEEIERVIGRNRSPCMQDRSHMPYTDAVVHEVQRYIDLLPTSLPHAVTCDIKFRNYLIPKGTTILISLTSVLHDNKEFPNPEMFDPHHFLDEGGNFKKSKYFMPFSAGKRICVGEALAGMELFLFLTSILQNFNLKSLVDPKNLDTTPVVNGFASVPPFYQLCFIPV
UniProt P08684, whole entry: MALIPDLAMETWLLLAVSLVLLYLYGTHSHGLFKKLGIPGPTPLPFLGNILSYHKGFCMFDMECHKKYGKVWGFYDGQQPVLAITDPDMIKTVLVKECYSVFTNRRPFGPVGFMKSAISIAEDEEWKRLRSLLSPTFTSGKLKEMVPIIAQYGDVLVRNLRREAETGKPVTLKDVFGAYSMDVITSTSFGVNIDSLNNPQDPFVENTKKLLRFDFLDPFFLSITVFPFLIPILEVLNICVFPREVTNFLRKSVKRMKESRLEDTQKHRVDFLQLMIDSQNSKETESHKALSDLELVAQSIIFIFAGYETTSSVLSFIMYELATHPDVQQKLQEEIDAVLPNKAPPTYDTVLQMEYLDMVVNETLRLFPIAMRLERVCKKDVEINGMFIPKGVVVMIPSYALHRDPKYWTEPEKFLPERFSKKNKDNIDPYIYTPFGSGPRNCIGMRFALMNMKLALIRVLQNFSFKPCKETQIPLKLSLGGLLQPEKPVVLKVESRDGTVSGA

Experiments:
CYP2C9 = CYP2C9 (Homo sapiens, UniProt P11712); settings: estimated
[1] = test system: subjects with metastatic or surgically unresectable urothelial cancer; settings: for Nail discoloration, any grade / Nail discoloration, grade 1 / Nail discoloration, grade 2 / Nail discoloration, grade ≥ 3: all-causality
CYP3A4 = CYP3A4 (Homo sapiens, UniProt P08684); settings: estimated
[2] = test system: metastatic or surgically unresectable urothelial cancer harboring select FGFR genetic alterations; settings: for Duration of response, median (95% CI): chemo relapsed/refractory
Description: The study comprises a Screening Phase (molecular screening at any time prior to first dose and study screening within 30 days of first dose), a treatment phase, and a post-treatment follow-up phase. The treatment phase comprises the period from first dose until the end-of-treatment visit. The follow-up phase extends until the subject has died, withdraws consent, is lost to follow-up, or the end of study, whichever comes first.
Included patients were adults with measurable urothelial cancer per Response Evaluation Criteria in Solid Tumors version 1.1.
Patients were required to have at least 1 FGFR2/FGFR3 mutation or fusion per central lab testing of RNA from formalin-fixed, paraffin-embedded tumor samples, using a custom reverse transcriptase polymerase chain reaction assay.
Patients were contacted every 12 weeks for survival assessment.
The study was designed to enroll 180 patients with specified FGFR alterations. Of these, ≥88 were required in the selected regimen. […] Responses were assessed by investigators and an independent radiological review committee. Progression-free survival and overall survival were estimated using Kaplan-Meier product limit method. Data from patients who were progression free and alive or with unknown status were censored at last tumor assessment. Efficacy end points were analysed at primary analysis cut-off.

[3] = treatment-related, 10 mg Intermittent, Regimen 1 (n = 33)

COc1cc(OC)cc(N(CCNC(C)C)c2ccc3ncc(-c4cnn(C)c4)nc3c2)c1 [erdafitinib, N-(3,5-dimethoxy-phenyl)-N′-(1-methylethyl)-N-[3-(1-methyl-1H-pyrazol-4-yl)quinoxalin-6-yl]ethane-1,2-diamine]
contribution of CYP2C9 in the total clearance (CYP2C9): 39% | Serious treatment-emergent: General disorders/administration site conditions ([1]; 6 mg continuous, n = 78): 7 (9) no. (%) | Serious treatment-emergent: General physical health deterioration ([1]; 6 mg continuous, n = 78): 2 (3) no. (%) | Serious treatment-emergent: General disorders/administration site conditions ([1]; 8 mg continuous, n = 99): 8 (8) no. (%) | Serious treatment-emergent: General physical health deterioration ([1]; 8 mg continuous, n = 99): 3 (3) no. (%) | Treatment-related Nail discoloration, any grade ([1]; 8 mg continuous, n = 99): 11 (11) no. (%) | Treatment-related Nail discoloration, grade 1 ([1]; 8 mg continuous, n = 99): 8 (8) no. (%) | Treatment-related Nail discoloration, grade 2 ([1]; 8 mg continuous, n = 99): 3 (3) no. (%) | Treatment-related Nail discoloration, grade 3 ([1]; 8 mg continuous, n = 99): 0 no. (%) | Serious treatment-emergent: General disorders/administration site conditions ([1]; 10 mg intermittent, n = 33): 1 (3) no. (%) | Serious treatment-emergent: General physical health deterioration ([1]; 10 mg intermittent, n = 33): 1 (3) no. (%) | Nail discoloration, any grade ([1]; 6 mg continuous, n = 78): 8 no. | Nail discoloration, grade 1 ([1]; 6 mg continuous, n = 78): 6 no. | Nail discoloration, grade 2 ([1]; 6 mg continuous, n = 78): 2 no. | Nail discoloration, grade ≥ 3 ([1]; 6 mg continuous, n = 78): 0 no. | Nail discoloration, any grade ([1]; 8 mg continuous, n = 99): 11 no. | Nail discoloration, grade 1 ([1]; 8 mg continuous, n = 99): 8 no. | Nail discoloration, grade 2 ([1]; 8 mg continuous, n = 99): 3 no. | Nail discoloration, grade ≥ 3 ([1]; 8 mg continuous, n = 99): 0 no. | Nail discoloration, any grade ([1]; 10 mg intermittent, n = 33): 1 no. | Nail discoloration, grade 1 ([1]; 10 mg intermittent, n = 33): 0 no. | Nail discoloration, grade 2 ([1]; 10 mg intermittent, n = 33): 1 no. | Nail discoloration, grade ≥ 3 ([1]; 10 mg intermittent, n = 33): 0 no. | Patients with Nail discoloration, Grade ≥3 ([1]; treatment-related, 6 mg Continuous, Regimen 2 (n = 78)): 0 no. | Patients with Nail discoloration, Grade 1 [1, 3]: 0 no. | Patients with Nail discoloration, Grade ≥3 [1, 3]: 0 no. | contribution of CYP3A4 in the total clearance (CYP3A4): 20% | Duration of response, median (95% CI) ([2]; 6 mg QD, FGFR fusions (excluding mutations), 2 responders): 9.20 (4.17, 14.23) months | Duration of response, median (95% CI) ([2]; 6 mg QD, FGFR mutations (excluding fusions), 22 responders): 4.53 (4.01, 7.79) months | Duration of response, median (95% CI) ([2]; 6 mg QD, FGFR mutations and fusions, 3 responders): 11.27 (4.17, NE) months | Duration of response, median (95% CI) ([2]; 8 mg QD, FGFR fusions (excluding mutations), 4 responders): NE (2.96, NE) | Duration of response, median (95% CI) ([2]; 8 mg QD, FGFR mutations (excluding fusions), 31 responders): 5.55 (4.21, 7.00) months | Duration of response, median (95% CI) ([2]; 10 mg 7 on/7 off, FGFR mutations (excluding fusions), 5 responders): 13.37 (4.17, 19.45) months | Duration of response, median (95% CI) ([2]; 10 mg 7 on/7 off, FGFR mutations and fusions, 1 responder): 4.34 (NE, NE) months | Median duration of response ([2]; Regimen 3, 8 mg continuous (n=99)): 5.6 mo | Duration of response, median (95% CI) ([2]; Total (all 3 regimens), FGFR fusions (excluding mutations), 6 responders): 9.40 (2.96, 14.23) months | Duration of response, median (95% CI) ([2]; Total (all 3 regimens), FGFR mutations and fusions, 4 responders): 7.80 (4.17, NE) months
